Measurements reported in PubChem BioAssay AID588590 (National Center for Advancing Translational Sciences (NCATS), 2011).
In all, about 390,000 compounds went through this assay and about 4,000 (1%) were called active. The shares of active, inactive and inconclusive entries below differ from those in the screen. Calls follow the shape of the dose curve; as a rule, active = well fitted inhibition curve with a large enough effect; inconclusive = small, poorly fitted or top-dose-only effect, or another doubt; inactive = no such curve, though single readings can be large or run the other way. Potencies beside an inconclusive call are fits to weak or partial responses and may not hold up.

Chains of the proteins cited; added tags and fusions are not shown. Lines headed by an entry give the natural chain unless they say otherwise; changes in a name come on top.
UniProt Q9UNA4: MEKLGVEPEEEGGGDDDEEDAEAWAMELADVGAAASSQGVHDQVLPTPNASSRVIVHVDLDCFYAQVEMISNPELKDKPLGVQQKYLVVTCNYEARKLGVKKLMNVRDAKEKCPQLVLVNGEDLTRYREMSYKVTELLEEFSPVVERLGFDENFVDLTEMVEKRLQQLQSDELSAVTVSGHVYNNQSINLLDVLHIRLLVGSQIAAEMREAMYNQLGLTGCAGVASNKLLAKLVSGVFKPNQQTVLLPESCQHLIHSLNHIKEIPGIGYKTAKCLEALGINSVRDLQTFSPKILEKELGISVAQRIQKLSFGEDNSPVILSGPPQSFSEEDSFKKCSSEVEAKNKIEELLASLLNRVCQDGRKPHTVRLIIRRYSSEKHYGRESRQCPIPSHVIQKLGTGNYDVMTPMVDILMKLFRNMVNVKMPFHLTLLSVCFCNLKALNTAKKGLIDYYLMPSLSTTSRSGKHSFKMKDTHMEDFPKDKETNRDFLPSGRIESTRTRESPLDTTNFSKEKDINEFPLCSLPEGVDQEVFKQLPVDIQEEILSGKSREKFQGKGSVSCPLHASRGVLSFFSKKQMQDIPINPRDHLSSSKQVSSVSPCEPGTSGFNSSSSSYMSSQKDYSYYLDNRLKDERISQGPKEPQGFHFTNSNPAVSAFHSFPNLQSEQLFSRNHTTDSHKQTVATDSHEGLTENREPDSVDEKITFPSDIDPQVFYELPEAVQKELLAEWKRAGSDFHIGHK

Biological target: DNA polymerase iota (Homo sapiens) (UniProt Q9UNA4)
Experiment: qHTS for Inhibitors of Polymerase Iota
Conditions: Pol iota fluorescent replication assay, 10 min; series mostly up to 115 µM
Procedure, shortened: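 Pol iota at 10 nM preincubated 15 min with compounds at room temperature; reaction started with fluorescent substrate, 50 nM final. Fluorescence read kinetically at 0 and 10 min; buffer-only wells as negative control.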
Potency is read from the fitted curve at half-maximal effect.

Which Potency does the source give for `Cn1cccc1C(=O)NC(=O)COC(=O)CNS(=O)(=O)c1ccc(Br)cc1` here?
Its Potency is inconclusive: 14.1 µM [inhibitor, partial curve].

Which Potency does the source give for `O=C(Nc1ccccc1N1CCN(c2ccc(F)cc2)CC1)c1ccccc1` here?
Its Potency is inconclusive: 10 µM [inhibitor, partial curve, poor fit].

`COc1ccc(-c2cn3cc(Br)cnc3n2)cc1` was tested. Which Potency did it give?
Its Potency is inconclusive: 56.2 µM [inhibitor, partial curve, poor fit].

With `COc1ccc(/C=C2/C(=O)N(c3ccccc3)N=C2C)c(OC)c1` as the molecule, how does the Potency read?
The Potency was inconclusive: 3.16 µM [inhibitor, full curve, poor fit].

For `Nc1cc(N)nc(SCCc2ccccc2)n1`, which Potency is on record?
The Potency was “inactive”.

How did the Potency turn out when `Nc1c(C(=O)OCC(=O)Nc2cccc([N+](=O)[O-])c2)[nH]c(=O)[nH]c1=O` was run?
The Potency was inconclusive: 20 µM [inhibitor, full curve, poor fit].

With `CCOc1cc(C(=O)Nc2ncccn2)cc(OCC)c1OCC` as the molecule, how does the Potency read?
Its Potency is inconclusive: 3.16 µM [inhibitor, single point].

How did the Potency turn out when `O=C(c1ccccc1)c1ccc(OCC(O)CNCc2ccc(Cl)cc2)cc1` (stereo not drawn) was run?
Its Potency is “inactive”.

How did the Potency turn out when `COc1ccc(NC(=O)C2CCCN(S(=O)(=O)c3cccc4nonc34)C2)cc1` (stereo not drawn) was run?
The Potency was inconclusive: 89.1 µM [inhibitor, single point].

Which Potency does the source give for `COc1cc(OC)c(C2C(C#N)=C(N)Oc3cc(C)n(CCCN4CCOCC4)c(=O)c32)cc1OC` (stereo not drawn) here?
Its Potency is inconclusive: 39.8 µM [inhibitor, partial curve, poor fit].

For `COc1ccc(OC)c(NC(=O)Cn2cnc3ccc(S(=O)(=O)N4CCC(C)CC4)cc3c2=O)c1`, which Potency is on record?
Its Potency is inconclusive: 79.4 µM [inhibitor, partial curve, poor fit].

`Cc1c(C(=O)N2CCN(CC(=O)Nc3ccccc3Cl)CC2)oc2ccc(Br)cc12` was tested. Which Potency did it give?
The Potency was “inactive”.

Which Potency does the source give for `O=C1NCCN1CCNS(=O)(=O)c1ccc(F)c(Cl)c1` here?
Its Potency is inconclusive: 39.8 µM [inhibitor, partial curve, poor fit].

`O=C(O)CCN1CC2([N+](=O)[O-])CC=C(OCCO)C([N+](=O)[O-])(C1)C2` (stereo not drawn) was tested. Which Potency did it give?
Its Potency is inconclusive: 100 µM [inhibitor, single point].

How did the Potency turn out when `COC/C=C/C1=CC2=CC(=O)C(C)(OC(=O)c3cnc4ccccc4n3)C(=O)C2=CN1c1ccccc1` (stereo not drawn) was run?
Its Potency is inconclusive: 15.8 µM [inhibitor, full curve, poor fit].

Which Potency does the source give for `Cc1cc(C)c2oc(C(=O)Nc3ccc(S(=O)(=O)N4CCCCC4)cc3)cc(=O)c2c1` here?
The Potency was “inactive”.

How did the Potency turn out when `Cc1ccc(Oc2ncccc2CO)cc1` was run?
The Potency was inconclusive: 100 µM [inhibitor, partial curve, poor fit].

With `Cc1ccccc1OCc1nnc(SCC(=O)O)n1-c1ccccc1` as the molecule, how does the Potency read?
Its Potency is inconclusive: 4.47 µM [inhibitor, partial curve, poor fit].

With `COc1cccc(NS(=O)(=O)c2ccc3c(c2)C2C=CCC2C(c2ccc(C(=O)O)cc2)N3)c1` (stereo not drawn) as the molecule, how does the Potency read?
Its Potency is active: 20 µM.

How did the Potency turn out when `COc1ccc(S(=O)(=O)N2CCCCCC2)cc1C(=O)NCc1ccc(C)cc1` was run?
Its Potency is inconclusive: 0.631 µM [inhibitor, full curve, poor fit].

`Cc1ccc2c(CN3CCN(C(=O)c4ccc(F)cc4)CC3)cc(=O)oc2c1` was tested. Which Potency did it give?
The Potency was “inactive”.

How did the Potency turn out when `Cc1cc(C)n2c(Nc3ccc(Cl)cc3)c(-c3ccsc3)nc2n1` was run?
Its Potency is inconclusive: 100 µM [inhibitor, single point].

How did the Potency turn out when `CC(C)N(C(=O)CSc1nnc(CN2CCCCCC2=O)n1-c1ccccn1)C(C)C` was run?
The Potency was inconclusive: 112 µM [inhibitor, partial curve, poor fit].

`CCO/C(C)=N/n1c2nc3ccccc3nc2c2c(=O)n(Cc3ccccc3Cl)c(C)nc21` was tested. Which Potency did it give?
Its Potency is inconclusive: 35.5 µM [inhibitor, single point].

For `Cc1ccc(S(=O)(=O)N2CCN(c3ncnc4sccc34)CC2)cc1C`, which Potency is on record?
The Potency was inconclusive: 17.8 µM [inhibitor, full curve].

For `COc1ccc(C2CC(=O)NC(NC(=O)c3ccc(Br)cc3)=N2)c(OC)c1OC` (stereo not drawn), which Potency is on record?
Its Potency is “inactive”.

For `CC(C)(C)c1ccc(C(=O)NCCc2csc3nc(-c4ccccc4F)nn23)cc1`, which Potency is on record?
The Potency was inconclusive: 31.6 µM [inhibitor, single point].

Which Potency does the source give for `COc1ccc(NC(=O)N(C)C[C@H]2Oc3ccc(NC(=O)Nc4c(C)noc4C)cc3C(=O)N([C@H](C)CO)C[C@H]2C)cc1` here?
Its Potency is “inactive”.

For `Cc1ccc(NC(=O)C2CCN(S(=O)(=O)c3c(C)noc3C)CC2)c(C)c1`, which Potency is on record?
Its Potency is “inactive”.

For `CN(C)c1ccc(C(=O)n2nnc3ccccc32)cc1`, which Potency is on record?
The Potency was inconclusive: 17.8 µM [inhibitor, single point].

For `Cc1ccc(S(=O)(=O)N(CC(=O)NCC2CCCO2)C2CCCCC2)cc1` (stereo not drawn), which Potency is on record?
The Potency was inconclusive: 56.2 µM [inhibitor, partial curve, poor fit].

`COc1cccc(CCN2C(=O)C(=O)N([C@@H](CNCc3ccccc3)Cc3ccccc3F)C[C@@H]2C(C)(C)C)c1` was tested. Which Potency did it give?
Its Potency is inconclusive: 15.8 µM [inhibitor, full curve, poor fit].

Which Potency does the source give for `COCCOC(=O)C1=C(C)NC(=O)NC1c1cccs1` (stereo not drawn) here?
Its Potency is inconclusive: 39.8 µM [inhibitor, single point].

`COCCn1c(SCC(=O)N2CCCC2=O)nc2sc(C)c(C)c2c1=O` was tested. Which Potency did it give?
The Potency was inconclusive: 17.8 µM [inhibitor, partial curve, poor fit].

With `Cc1nc([N+](=O)[O-])c(Br)n1Cc1ccc(Cl)c(Cl)c1` as the molecule, how does the Potency read?
The Potency was inconclusive: 31.6 µM [inhibitor, partial curve].

With `CCN1CCN(Cc2ccc(OCc3ccccc3)c(OC)c2)CC1` as the molecule, how does the Potency read?
The Potency was inconclusive: 56.2 µM [inhibitor, full curve].

For `Cn1cc([N+](=O)[O-])c(C(=O)Nc2cc(Oc3ccccc3)cc([N+](=O)[O-])c2)n1`, which Potency is on record?
The Potency was inconclusive: 112 µM [inhibitor, partial curve, poor fit].

How did the Potency turn out when `OC(c1ccc(Cl)cc1)c1nnc(-c2ccccc2)o1` (stereo not drawn) was run?
Its Potency is inconclusive: 35.5 µM [inhibitor, partial curve, poor fit].

How did the Potency turn out when `O=C(NCc1cccn1Cc1ccccc1)Nc1cccc(C(F)(F)F)c1` was run?
The Potency was inconclusive: 89.1 µM [inhibitor, single point].

For `Cc1ccc2c(c1)c(=O)c1c3n2CCN(C(=O)CCl)C3CC1` (stereo not drawn), which Potency is on record?
Its Potency is inconclusive: 17.8 µM [inhibitor, full curve, poor fit].

`O=C(Cn1nc(-c2ccccc2)ccc1=O)Nc1ccc(-n2cnnn2)cc1` was tested. Which Potency did it give?
The Potency was inconclusive: 35.5 µM [inhibitor, single point].

For `CNC(=O)c1cc2cc(Br)ccc2s1`, which Potency is on record?
The Potency was inconclusive: 89.1 µM [inhibitor, single point].

With `O=C1/C(=C\c2ccc([N+](=O)[O-])cc2)CS(=O)(=O)C/C1=C/c1ccc([N+](=O)[O-])cc1` as the molecule, how does the Potency read?
Its Potency is active: 11.2 µM.

`CCOC(=O)c1cnc2cc(C(F)(F)F)ccc2c1N1CCN(c2cccc(Cl)c2)CC1` was tested. Which Potency did it give?
Its Potency is “inactive”.

`CC(C)=CC(=O)N1CCC(n2nccc2NC(=O)CCc2ccccc2)CC1` was tested. Which Potency did it give?
The Potency was inconclusive: 3.98 µM [inhibitor, partial curve, poor fit].

Which Potency does the source give for `O=C(CCN1C(=O)c2ccccc2S1(=O)=O)N1CCN(c2cccc(Cl)c2)CC1` here?
The Potency was inconclusive: 63.1 µM [inhibitor, partial curve, poor fit].

How did the Potency turn out when `CCOC(=O)c1c(SCC(=O)Nc2nc3ccccc3s2)nc(=O)[nH]c1C` was run?
The Potency was inconclusive: 39.8 µM [inhibitor, partial curve, poor fit].

How did the Potency turn out when `CC(=O)c1ccc(NC(=O)Cn2cnc3nc4c(cc3c2=O)CC(C)CC4)cc1` (stereo not drawn) was run?
The Potency was inconclusive: 89.1 µM [inhibitor, partial curve, poor fit].

`CCC1CCCCN1C(=O)CSc1nnc(-c2cccc(Cl)c2)o1` (stereo not drawn) was tested. Which Potency did it give?
The Potency was inconclusive: 89.1 µM [inhibitor, single point].

How did the Potency turn out when `Cc1ccc(S(=O)(=O)c2nnn3c2nc(NC(C)c2ccccc2)c2sccc23)cc1` (stereo not drawn) was run?
Its Potency is “inactive”.

With `O=C(COC(=O)c1ccccc1OCCOc1ccccc1)Nc1ccc(Br)cc1` as the molecule, how does the Potency read?
Its Potency is “inactive”.

Which Potency does the source give for `O=C(c1cccc(-n2cccc2)c1)N1CCN(S(=O)(=O)c2ccc(F)cc2)CC1` here?
The Potency was inconclusive: 56.2 µM [inhibitor, partial curve, poor fit].

With `COc1ccc(CCNC(=O)c2ccc3c(=O)n(Cc4ccco4)c(=S)[nH]c3c2)cc1OC` as the molecule, how does the Potency read?
Its Potency is inconclusive: 44.7 µM [inhibitor, partial curve, poor fit].

Which Potency does the source give for `C=CCn1c(SCC(=O)c2ccc(O)c(O)c2)nnc1-c1ccccc1OC` here?
The Potency was active: 50.1 µM.

Which Potency does the source give for `O=c1c(C(c2ccc(Cl)cc2)c2c(O)nc3n(c2=O)CCS3)c(O)nc2n1CCS2` here?
Its Potency is inconclusive: 14.1 µM [inhibitor, full curve, poor fit].

With `CCC(=O)Nc1nc(C)c(-c2csc(Nc3cccc(C(=O)O)c3)n2)s1` as the molecule, how does the Potency read?
Its Potency is “inactive”.

Which Potency does the source give for `COc1ccccc1N1CCN(C(=O)c2ccc(C(C)(C)C)cc2)CC1` here?
The Potency was inconclusive: 10 µM [inhibitor, full curve, poor fit].

`COc1cc(Cl)c(C)cc1NC(=O)[C@@H]1CCCN1C(=O)c1cccs1` was tested. Which Potency did it give?
The Potency was inconclusive: 50.1 µM [inhibitor, partial curve, poor fit].

`O=[N+]([O-])c1ccccc1/C=N/n1c(-c2cccnc2)n[nH]c1=S` was tested. Which Potency did it give?
The Potency was “inactive”.

How did the Potency turn out when `O=C(CN1C(=O)c2cccc3cccc1c23)N1CCc2ccccc2C1` was run?
Its Potency is inconclusive: 100 µM [inhibitor, single point].

How did the Potency turn out when `O=C(Nc1ccc(Cl)cc1)Nc1nc(-c2ccccc2O)cs1` was run?
The Potency was “inactive”.

`Cc1cccc(NC2=NCC(=O)N2Cc2cccs2)c1` was tested. Which Potency did it give?
Its Potency is “inactive”.

Which Potency does the source give for `CC1=NN(c2ccc(C)c(C)c2)C(=O)C1C(c1cccc(O)c1)C1C(=O)N(c2ccc(C)c(C)c2)N=C1C` (stereo not drawn) here?
The Potency was inconclusive: 0.398 µM [inhibitor, full curve, poor fit].
